# Measured values reported in ChEMBL document CHEMBL1132543, “N-deacetyl-N-aminoacylthiocolchicine derivatives: synthesis and biological evaluation on MDR-positive and MDR-negative human cancer cell lines” (J Med Chem, 1999).
# Tests used:
# [1] = test system: MCF7; assay: Anti tumor activity on human breast cancer cell line MDR-positive MCF-7 ADRr after 72 hours of treatment; type: functional, cell-based; details: MCF7, 72 h
# [2] = test system: MDA-MB-231; assay: cells; type: functional, cell-based; details: Homo sapiens, MDA-MB-231, 72 h
smiles,measurement,setting,value
COc1cc2c(c(OC)c1OC)-c1ccc(SC)c(=O)cc1[C@@H](N)CC2,IC50,[1],4200 nM
same,IC50,[2],2.2 nM
